Measured values reported in PMC5818066.

Chains of the proteins cited; added tags and fusions are not shown. Lines headed by an entry give the natural chain unless they say otherwise; changes in a name come on top.
UniProt O76447: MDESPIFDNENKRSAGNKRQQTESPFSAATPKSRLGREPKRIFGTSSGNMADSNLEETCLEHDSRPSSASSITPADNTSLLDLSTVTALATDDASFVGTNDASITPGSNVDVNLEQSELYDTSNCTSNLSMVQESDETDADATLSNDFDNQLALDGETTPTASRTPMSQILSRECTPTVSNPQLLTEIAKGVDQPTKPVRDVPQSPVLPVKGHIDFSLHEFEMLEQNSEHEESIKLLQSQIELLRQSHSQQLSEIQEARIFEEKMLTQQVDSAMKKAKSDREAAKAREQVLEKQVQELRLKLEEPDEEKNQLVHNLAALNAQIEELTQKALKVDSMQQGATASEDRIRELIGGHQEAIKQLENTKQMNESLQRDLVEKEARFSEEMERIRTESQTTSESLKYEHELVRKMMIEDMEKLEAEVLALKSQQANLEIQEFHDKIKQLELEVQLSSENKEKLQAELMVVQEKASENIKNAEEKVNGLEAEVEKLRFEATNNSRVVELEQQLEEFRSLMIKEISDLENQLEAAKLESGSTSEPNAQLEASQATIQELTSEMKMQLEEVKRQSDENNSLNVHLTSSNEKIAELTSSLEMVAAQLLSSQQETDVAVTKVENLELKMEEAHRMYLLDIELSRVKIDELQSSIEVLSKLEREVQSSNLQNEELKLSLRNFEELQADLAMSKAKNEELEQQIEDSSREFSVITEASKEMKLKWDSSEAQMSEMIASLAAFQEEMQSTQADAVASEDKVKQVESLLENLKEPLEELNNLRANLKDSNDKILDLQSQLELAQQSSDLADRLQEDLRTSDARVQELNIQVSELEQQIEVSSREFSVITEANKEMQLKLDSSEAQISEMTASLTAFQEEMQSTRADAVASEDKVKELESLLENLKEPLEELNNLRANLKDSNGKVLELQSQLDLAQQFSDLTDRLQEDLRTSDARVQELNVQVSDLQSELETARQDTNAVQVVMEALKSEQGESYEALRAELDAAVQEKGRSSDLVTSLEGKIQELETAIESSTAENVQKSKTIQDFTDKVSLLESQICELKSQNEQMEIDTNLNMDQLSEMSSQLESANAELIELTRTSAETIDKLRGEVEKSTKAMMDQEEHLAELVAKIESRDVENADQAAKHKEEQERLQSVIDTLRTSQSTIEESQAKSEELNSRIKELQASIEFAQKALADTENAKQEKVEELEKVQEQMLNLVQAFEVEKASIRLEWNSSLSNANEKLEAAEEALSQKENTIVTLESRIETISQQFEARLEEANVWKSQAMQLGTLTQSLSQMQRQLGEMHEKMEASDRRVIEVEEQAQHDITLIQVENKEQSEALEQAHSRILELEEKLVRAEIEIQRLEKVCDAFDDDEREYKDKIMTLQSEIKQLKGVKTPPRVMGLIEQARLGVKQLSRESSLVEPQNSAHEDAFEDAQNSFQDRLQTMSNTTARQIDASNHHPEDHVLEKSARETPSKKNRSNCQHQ

Biological target: T1, NUD-2 (C. elegans NudE/L homolog) (C. elegans) (UniProt O45717)
T1 sequence: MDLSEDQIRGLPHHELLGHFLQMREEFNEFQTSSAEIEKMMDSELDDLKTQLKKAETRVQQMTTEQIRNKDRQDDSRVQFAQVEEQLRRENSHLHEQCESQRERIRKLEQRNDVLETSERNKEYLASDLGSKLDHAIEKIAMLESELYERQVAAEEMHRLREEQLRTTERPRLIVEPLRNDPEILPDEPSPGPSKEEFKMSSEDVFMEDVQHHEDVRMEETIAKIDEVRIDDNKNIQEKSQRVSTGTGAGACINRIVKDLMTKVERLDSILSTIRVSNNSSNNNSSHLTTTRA
Test: two-hybrid; yeast two-hybrid (Matchmaker); bait in pGBKT7, prey in pGADT7; growth on -Leu/-Trp/-His plates selects for the interaction

| binding | Substance |
| --- | --- |
| binds | HCP-2 (CENP-F-like protein) (from UniProt Q22257) |
| binds | HCP-1 (CENP-F-like protein) (from UniProt O76447) |

Results are given in words; binding and its absence hold for the method and conditions named. Binding calls can cover weak binding; strength is not graded here.
